The experiment concerns the target T1, recombinant human BCMA protein Fc fusion (human, UniProt Q02223 1-54).
T1 construct: Staining reagent for CAR on T cells; also called BCMA-Fc fusion protein; 재조합 인간 BCMA 단백질의 Fc 단편; not shown: Fc part
T1 sequence (looked up): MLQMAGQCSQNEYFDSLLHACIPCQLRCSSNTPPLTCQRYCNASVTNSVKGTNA
In words: flow cytometry of CAR-T cells stained with recombinant human BCMA-Fc (days 7, 21, 29). On the technique in general: A flow cytometer gives signals particle by particle.

The results in this text go back to patent KR20230117367A (dated 2023).

B1: chimeric antigen receptor BCMA-CA8 (other)
chain: DIQLTQTTSSLSASLGDRVTISCSASQDISNYLNWYQQKPDGTVELVIYYTSNLHSGVPSRFSGSGSGTDYSLTIGYLEPEDVATYYCQQYRKLPWTFGGGSKLEIKRGGGGSGGGGSGGGGSEVQLQQSGAVLARPGASVKMSCKGSGYTFTNYWMHWVKQRPGQGLEWIGATYRGHSDTYYNQKFKGKAKLTAVTSTSTAYMELSSLTNEDSAVYYCTRGAIYNGYDVLDNWGQGTLVTVSSFVPVFLPAKPTTTPAPRPPTPAPTIASQPLSLRPEACRPAAGGAVHTRGLDFACDIYIWAPLAGTCGVLLLSLVITLYCKRGRKKLLYIFKQPFMRPVQTTQEEDGCSCRFPEEEEGGCELRVKFSRSADAPAYQQGQNQLYNELNLGRREEYDVLDKRRGRDPEMGGKPRRKNPQEGLYNELQKDKMAEAYSEIGMKGERRRGKGHDGLYQGLSTATKDTYDALHMQALPPR
notes: CAR on T cells; also called CART-BCMA-CA8
B1: the binding result is “binds”.
